From patent publication US20180235193A1 (MINERVA BIOTECHNOLOGIES, published 2018) come the findings set out here.

By UniProt entry, the sequences of proteins in these tests, tags left out. Where a name states a change or a piece, a line headed by the entry shows the natural chain unless it says otherwise.
UniProt P15941: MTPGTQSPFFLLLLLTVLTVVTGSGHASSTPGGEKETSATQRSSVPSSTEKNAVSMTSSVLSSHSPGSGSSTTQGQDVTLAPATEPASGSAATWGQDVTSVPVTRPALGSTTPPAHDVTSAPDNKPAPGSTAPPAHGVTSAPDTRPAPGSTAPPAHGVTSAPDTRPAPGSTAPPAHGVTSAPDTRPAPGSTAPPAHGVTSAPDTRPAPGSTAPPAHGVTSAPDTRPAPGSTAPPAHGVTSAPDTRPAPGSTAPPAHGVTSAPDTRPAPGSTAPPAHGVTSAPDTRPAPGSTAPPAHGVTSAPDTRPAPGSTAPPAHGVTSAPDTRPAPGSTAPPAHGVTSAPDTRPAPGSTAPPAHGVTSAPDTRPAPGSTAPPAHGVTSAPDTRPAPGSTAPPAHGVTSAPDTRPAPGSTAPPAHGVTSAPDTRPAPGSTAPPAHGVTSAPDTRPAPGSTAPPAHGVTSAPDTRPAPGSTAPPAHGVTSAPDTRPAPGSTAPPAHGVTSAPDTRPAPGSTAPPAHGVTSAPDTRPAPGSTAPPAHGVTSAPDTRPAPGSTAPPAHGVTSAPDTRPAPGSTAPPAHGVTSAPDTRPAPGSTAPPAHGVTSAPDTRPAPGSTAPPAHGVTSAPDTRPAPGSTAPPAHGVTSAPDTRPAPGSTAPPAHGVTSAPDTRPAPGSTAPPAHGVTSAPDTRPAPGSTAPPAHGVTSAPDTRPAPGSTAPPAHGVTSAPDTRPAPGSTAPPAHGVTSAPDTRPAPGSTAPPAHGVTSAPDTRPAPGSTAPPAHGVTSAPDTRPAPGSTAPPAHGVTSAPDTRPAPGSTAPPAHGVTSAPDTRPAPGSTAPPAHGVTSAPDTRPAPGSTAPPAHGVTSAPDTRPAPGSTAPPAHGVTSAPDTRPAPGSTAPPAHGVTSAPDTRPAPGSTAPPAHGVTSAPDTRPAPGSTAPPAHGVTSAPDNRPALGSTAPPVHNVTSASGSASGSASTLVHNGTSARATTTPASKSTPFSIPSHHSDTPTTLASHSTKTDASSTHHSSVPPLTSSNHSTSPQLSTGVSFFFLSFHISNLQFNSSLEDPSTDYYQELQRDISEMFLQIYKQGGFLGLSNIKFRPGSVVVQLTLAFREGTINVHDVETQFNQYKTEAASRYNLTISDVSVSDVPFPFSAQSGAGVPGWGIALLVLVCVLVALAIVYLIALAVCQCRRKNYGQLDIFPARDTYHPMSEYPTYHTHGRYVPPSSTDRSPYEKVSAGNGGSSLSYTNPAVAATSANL
UniProt Q9Y5B8: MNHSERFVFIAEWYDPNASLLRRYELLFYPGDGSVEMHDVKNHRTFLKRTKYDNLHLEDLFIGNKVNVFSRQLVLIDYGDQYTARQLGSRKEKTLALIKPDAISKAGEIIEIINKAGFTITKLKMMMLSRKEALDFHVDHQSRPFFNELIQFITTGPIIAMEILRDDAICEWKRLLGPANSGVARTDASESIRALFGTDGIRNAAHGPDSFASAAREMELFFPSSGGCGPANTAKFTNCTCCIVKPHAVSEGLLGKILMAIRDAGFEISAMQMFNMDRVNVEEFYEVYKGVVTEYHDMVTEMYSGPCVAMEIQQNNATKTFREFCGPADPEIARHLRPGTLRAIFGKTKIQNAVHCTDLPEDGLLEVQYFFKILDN

In the assay the target is MUC1* growth factor receptor (cleaved form of human MUC1) (human) (UniProt P15941). Nature of the assay: co-immunoprecipitation from human iPS and ES cell lysates with Ab5, Western blot.

No constants are given. Whether binding was seen depends on the method and setting. Binding seen in cells or lysates may run through a third protein. Some entries that bind do so weakly or less than the wild type.

As to “Human NME7-X1 (from UniProt Q9Y5B8 125-376) (ligand)”, the binding result is “binds”.
